This experiment deals with T1, S100A9 (mouse (endogenous in BCG-elicited peritoneal neutrophils)) (UniProt P31725).
T1 sequence: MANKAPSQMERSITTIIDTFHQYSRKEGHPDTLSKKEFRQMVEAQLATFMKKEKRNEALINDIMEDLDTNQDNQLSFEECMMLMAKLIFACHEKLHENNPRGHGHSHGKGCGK
As to the kind of experiment: co-IP; nuclear extracts of BCG-elicited mouse neutrophils incubated with anti-S100A9 antibody (or control rabbit IgG) overnight at 4°C; protein G-Sepharose beads; washed thrice with ChIP dilution buffer; immunoblot with anti-C/EBPβ, anti-p65 and anti-S100A9. (A western blot detects proteins with antibodies after separation by electrophoresis.)

By UniProt entry, the sequences of proteins in these tests, tags left out.
UniProt P28033: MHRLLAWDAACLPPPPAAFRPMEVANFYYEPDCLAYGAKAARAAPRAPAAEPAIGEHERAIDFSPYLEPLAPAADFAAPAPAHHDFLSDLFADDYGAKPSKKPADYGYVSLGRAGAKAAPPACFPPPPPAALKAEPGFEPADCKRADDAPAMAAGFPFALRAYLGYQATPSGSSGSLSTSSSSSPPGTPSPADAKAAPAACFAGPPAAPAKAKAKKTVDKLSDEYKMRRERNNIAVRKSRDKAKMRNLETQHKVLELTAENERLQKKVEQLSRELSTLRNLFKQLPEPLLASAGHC
UniProt Q04207: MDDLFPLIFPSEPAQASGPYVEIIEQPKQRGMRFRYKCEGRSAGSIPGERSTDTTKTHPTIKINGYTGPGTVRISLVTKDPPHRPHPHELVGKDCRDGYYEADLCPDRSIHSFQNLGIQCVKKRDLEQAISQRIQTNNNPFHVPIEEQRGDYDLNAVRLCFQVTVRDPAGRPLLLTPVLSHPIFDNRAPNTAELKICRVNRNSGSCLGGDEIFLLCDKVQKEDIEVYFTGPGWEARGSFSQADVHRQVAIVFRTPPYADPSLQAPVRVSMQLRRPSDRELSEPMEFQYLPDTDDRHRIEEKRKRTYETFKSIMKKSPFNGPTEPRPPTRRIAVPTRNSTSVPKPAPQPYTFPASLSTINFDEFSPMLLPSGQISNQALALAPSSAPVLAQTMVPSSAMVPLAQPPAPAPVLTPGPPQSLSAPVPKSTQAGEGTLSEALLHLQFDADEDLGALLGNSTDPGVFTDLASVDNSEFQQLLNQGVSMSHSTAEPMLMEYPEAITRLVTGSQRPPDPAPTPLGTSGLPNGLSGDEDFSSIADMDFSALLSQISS

The values below come from PMC9947307.

No constants are given. Whether binding was seen depends on the method and setting. Binding seen in cells or lysates may run through a third protein. Some binding calls cover weakened binding; strength is not graded here.

As for C/EBPβ (from UniProt P28033 1-296), the binding result was “binds”.
To “nuclear factor κB component p65 (from UniProt Q04207 1-549)” belongs “no binding”.
